This test concerns the target T1, CYLD (endogenous, PSD fraction) (rat (endogenous in cerebral cortex PSD fraction)) (UniProt Q66H62).
T1 sequence: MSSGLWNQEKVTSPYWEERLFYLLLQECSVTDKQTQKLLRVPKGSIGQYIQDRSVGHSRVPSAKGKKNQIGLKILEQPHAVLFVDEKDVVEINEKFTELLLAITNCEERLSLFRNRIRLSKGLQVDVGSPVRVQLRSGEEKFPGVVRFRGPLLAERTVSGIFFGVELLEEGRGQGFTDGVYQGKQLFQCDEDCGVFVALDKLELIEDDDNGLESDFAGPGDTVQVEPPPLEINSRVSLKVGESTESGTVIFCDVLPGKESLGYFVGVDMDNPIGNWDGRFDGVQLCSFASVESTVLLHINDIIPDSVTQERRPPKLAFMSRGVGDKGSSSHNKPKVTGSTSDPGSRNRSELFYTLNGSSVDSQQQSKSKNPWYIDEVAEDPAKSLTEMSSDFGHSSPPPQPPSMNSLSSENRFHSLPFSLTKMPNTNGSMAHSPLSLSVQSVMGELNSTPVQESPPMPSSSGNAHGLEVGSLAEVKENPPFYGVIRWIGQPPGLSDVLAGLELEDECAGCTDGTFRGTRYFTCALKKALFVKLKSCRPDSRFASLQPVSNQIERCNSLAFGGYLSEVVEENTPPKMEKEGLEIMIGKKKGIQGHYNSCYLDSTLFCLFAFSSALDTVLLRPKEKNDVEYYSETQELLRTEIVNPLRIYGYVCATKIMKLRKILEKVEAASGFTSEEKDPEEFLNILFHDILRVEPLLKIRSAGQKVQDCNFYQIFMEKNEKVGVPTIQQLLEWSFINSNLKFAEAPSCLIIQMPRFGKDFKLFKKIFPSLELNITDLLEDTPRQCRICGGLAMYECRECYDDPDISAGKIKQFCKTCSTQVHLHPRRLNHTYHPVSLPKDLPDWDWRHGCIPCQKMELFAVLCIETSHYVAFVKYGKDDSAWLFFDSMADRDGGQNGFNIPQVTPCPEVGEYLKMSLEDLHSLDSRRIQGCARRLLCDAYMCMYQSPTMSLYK
Nature of the test: co-IP; rat cerebral cortex PSD fraction solubilized in 1% SDS, diluted to 0.5% TX-100; CYLD mouse monoclonal antibody (E-4) and protein-A agarose beads; washed with 1% TX-100 in PBS; Western blot for CYLD and alphaCaMKII; non-phosphorylating conditions.

By UniProt entry, the sequences of proteins in these tests, tags left out.
UniProt P11275: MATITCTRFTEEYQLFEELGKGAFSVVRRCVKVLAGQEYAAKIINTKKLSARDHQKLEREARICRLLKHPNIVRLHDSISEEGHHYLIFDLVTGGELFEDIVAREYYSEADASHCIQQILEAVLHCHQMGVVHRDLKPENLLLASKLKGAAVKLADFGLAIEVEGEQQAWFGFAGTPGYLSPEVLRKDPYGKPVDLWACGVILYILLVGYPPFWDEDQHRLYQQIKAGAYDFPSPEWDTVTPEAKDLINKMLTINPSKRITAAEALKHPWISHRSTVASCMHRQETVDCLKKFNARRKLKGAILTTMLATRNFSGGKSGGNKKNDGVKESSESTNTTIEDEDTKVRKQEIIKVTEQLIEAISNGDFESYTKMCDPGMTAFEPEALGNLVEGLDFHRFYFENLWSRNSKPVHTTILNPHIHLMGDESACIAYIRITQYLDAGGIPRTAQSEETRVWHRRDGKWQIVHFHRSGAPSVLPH

Here are results for 1 substance from paper PMC3948843.

Results are given in words; binding and its absence hold for the method and conditions named. Binding seen in cells or lysates may run through a third protein. Some results given as binding are weak or reduced against the parent protein; the word gives no strength.

On to “CaMKII (PSD-associated, detected with an antibody to alphaCaMKII) (from UniProt P11275 1-478) (enzyme)”, for which the binding entry is given as “binds”.
